# Reference: the supplement of paper PMC8728848
# Some of the results follow.
# Key:
# Assay in all cases: glycan array binding signal (z-score within array); higher = stronger binding
# Details in all cases: glycan notation: IUPAC condensed, linker removed
# [1] = target: GlcNAc(b1-2)Gal(b1-3)GalNAc
# Procedure, shortened: (§1)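 The binding signal is a Z-score computed within each array and averaged over linkers. Arrays of the same protein sequence at different concentrations or buffers were also averaged together. Data originate from 3228 arrays in the Consortium for Functional Glycomics database, kept only where the protein sequence was available.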
# [2] = target: GlcNAc(b1-2)Man(a1-3)[GlcNAc(b1-2)Man(a1-6)]Man(b1-4)GlcNAc(b1-4)GlcNAc
# Procedure, shortened: as §1
# [3] = target: GlcNAc(b1-2)Man(a1-3)[GlcNAc(b1-2)Man(a1-6)]Man(b1-4)GlcNAc(b1-4)[Fuc(a1-6)]GlcNAc
# Procedure, shortened: as §1
# [4] = target: GlcNAc(b1-2)Man(a1-3)[GlcNAc(b1-4)][GlcNAc(b1-2)Man(a1-6)]Man(b1-4)GlcNAc(b1-4)GlcNAc
# Procedure, shortened: as §1
# [5] = target: GlcNAc(b1-2)Man(a1-3)[GlcNAc(b1-4)][GlcNAc(b1-2)Man(a1-6)]Man(b1-4)GlcNAc(b1-4)[Fuc(a1-6)]GlcNAc
# Procedure, shortened: as §1
# [6] = target: GlcNAc(b1-2)[GlcNAc(b1-4)]Man(a1-3)[GlcNAc(b1-2)Man(a1-6)]Man(b1-4)GlcNAc(b1-4)GlcNAc
# Procedure, shortened: as §1
# [7] = target: GlcNAc(b1-2)[GlcNAc(b1-4)]Man(a1-3)[GlcNAc(b1-4)][GlcNAc(b1-2)Man(a1-6)]Man(b1-4)GlcNAc(b1-4)GlcNAc
# Procedure, shortened: as §1
# [8] = target: GlcNAc(b1-2)[GlcNAc(b1-4)]Man(a1-3)[GlcNAc(b1-4)][GlcNAc(b1-2)[GlcNAc(b1-6)]Man(a1-6)]Man(b1-4)GlcNAc(b1-4)GlcNAc
# Procedure, shortened: as §1
# [9] = target: GlcNAc(b1-2)[GlcNAc(b1-4)]Man(a1-3)[GlcNAc(b1-4)][GlcNAc(b1-2)[GlcNAc(b1-6)]Man(a1-6)]Man(b1-4)GlcNAc(b1-4)[Fuc(a1-6)]GlcNAc
# Procedure, shortened: as §1
# [10] = target: GlcNAc(b1-2)[GlcNAc(b1-6)]Man(a1-6)[GlcNAc(b1-2)Man(a1-3)]Man(b1-4)GlcNAc(b1-4)GlcNAc
# Procedure, shortened: as §1
# [11] = target: GlcNAc(b1-2)[GlcNAc(b1-6)]Man(a1-6)[GlcNAc(b1-2)Man(a1-3)]Man(b1-4)GlcNAc(b1-4)[Fuc(a1-6)]GlcNAc
# Procedure, shortened: as §1
# [12] = target: GlcNAc(b1-2)[GlcNAc(b1-6)]Man(a1-6)[GlcNAc(b1-4)][GlcNAc(b1-2)Man(a1-3)]Man(b1-4)GlcNAc(b1-4)GlcNAc
# Procedure, shortened: as §1
# GlcNAc(b1-3)Fuc = target: GlcNAc(b1-3)Fuc
# Procedure, shortened: as §1
# GlcNAc(b1-3)Gal = target: GlcNAc(b1-3)Gal
# Procedure, shortened: as §1
# [13] = target: GlcNAc(b1-3)Gal(b1-3)GalNAc
# Procedure, shortened: as §1
# GlcNAc(b1-3)Gal(b1-4)Glc = target: GlcNAc(b1-3)Gal(b1-4)Glc
# Procedure, shortened: as §1
# [14] = target: GlcNAc(b1-3)Gal(b1-4)GlcNAc
# Procedure, shortened: as §1
# [15] = target: GlcNAc(b1-3)Gal(b1-4)GlcNAc(b1-2)Man(a1-3)[GlcNAc(b1-3)Gal(b1-4)GlcNAc(b1-2)Man(a1-6)]Man(b1-4)GlcNAc(b1-4)GlcNAc
# Procedure, shortened: as §1
binder,measurement,setting,value
SP15308F-bth-333-19-333 (Bacteroides thetaiotaomicron) (protein) SCNNEWESEQYVQMVSFKAPVNAQGVTPIYIRYKPEGKVTYQLPLIVSGSTMNSKDLNVHVGLDLDTLDVLNVEHFGSRKELFFKPLENKYYEFPETVQIPAGECTSLLPIDFALKDLDQVDKWVLPLAIQSNDPSHNYQANPRKFYRRAMLRISPFNDYSGQYSATAYKVYFKGNEKEAIVPEYHTSYVIDDKTIFFYAGLIDIDRLDRKYYKIKFEFTEEKIDLQTRKLKISSDNEDINLVVKGQPSYTVEEEMDATRPYLKHIYVTINNLEYEFTDYTSVPGYPLEYVVKGSLTMERKINTQIPDEDQAIEW,glycan array binding signal (z-score),[1],-0.835
same,glycan array binding signal (z-score),[2],-0.298
same,glycan array binding signal (z-score),[3],0.59
same,glycan array binding signal (z-score),[4],-0.591
same,glycan array binding signal (z-score),[5],-0.288
same,glycan array binding signal (z-score),[6],0.866
same,glycan array binding signal (z-score),[7],-1.44
same,glycan array binding signal (z-score),[8],-1.46
same,glycan array binding signal (z-score),[9],-0.642
same,glycan array binding signal (z-score),[10],-0.327
same,glycan array binding signal (z-score),[11],-0.049
same,glycan array binding signal (z-score),[12],-1.18
same,glycan array binding signal (z-score),GlcNAc(b1-3)Fuc,-1.48
same,glycan array binding signal (z-score),GlcNAc(b1-3)Gal,0.015
same,glycan array binding signal (z-score),[13],0.458
same,glycan array binding signal (z-score),GlcNAc(b1-3)Gal(b1-4)Glc,0.588
same,glycan array binding signal (z-score),[14],-0.835
same,glycan array binding signal (z-score),[15],0.374

# Looked up one by one from the entries so far (two):
binder,measurement,setting,value
SP15308F-bth-333-19-333 (Bacteroides thetaiotaomicron) (protein) SCNNEWESEQYVQMVSFKAPVNAQGVTPIYIRYKPEGKVTYQLPLIVSGSTMNSKDLNVHVGLDLDTLDVLNVEHFGSRKELFFKPLENKYYEFPETVQIPAGECTSLLPIDFALKDLDQVDKWVLPLAIQSNDPSHNYQANPRKFYRRAMLRISPFNDYSGQYSATAYKVYFKGNEKEAIVPEYHTSYVIDDKTIFFYAGLIDIDRLDRKYYKIKFEFTEEKIDLQTRKLKISSDNEDINLVVKGQPSYTVEEEMDATRPYLKHIYVTINNLEYEFTDYTSVPGYPLEYVVKGSLTMERKINTQIPDEDQAIEW,glycan array binding signal (z-score),[13],0.458
same,glycan array binding signal (z-score),[1],-0.835
